This passage reports binding results from publication doi:10.1101/2022.06.22.497210.

Protein sequences, listed by entry. Tags and fused reporters are not part of them. Lines headed by an entry give the natural chain unless they say otherwise; changes in a name come on top.
UniProt O55242: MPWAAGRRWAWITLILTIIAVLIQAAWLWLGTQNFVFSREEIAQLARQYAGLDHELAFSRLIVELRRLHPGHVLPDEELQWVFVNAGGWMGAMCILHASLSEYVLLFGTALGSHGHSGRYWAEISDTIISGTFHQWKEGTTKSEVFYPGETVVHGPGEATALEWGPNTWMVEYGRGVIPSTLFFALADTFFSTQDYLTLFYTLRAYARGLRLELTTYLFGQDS

Where two headings read alike, the source gives them in different places. Results are given in words; binding and its absence hold for the method and conditions named. Binding seen in cells or lysates may run through a third protein. These calls come from enrichment with a bait or labelling near it, and not all partners need be listed.

Test [1] has as its target S1R-Apex (mouse Sigma 1 Receptor with V5-Apex2 fused to the C terminus) (mouse) (UniProt O55242). The test is described as follows: proximity labelling.
Test [2] has the same target. The test is described as follows: proximity labelling. The source holds these as a separate data set.

B1: glycyl-tRNA-synthetase (GARS) (enzyme, UniProt P41250 37-739)
chain: SAASCPPISLPAAASRSSMDGAGAEEVLAPLRLAVRQQGDLVRKLKEDKAPQVDVDKAVAELKARKRVLEAKELALQPKDDIVDRAKMEDTLKRRFFYDQAFAIYGGVSGLYDFGPVGCALKNNIIQTWRQHFIQEEQILEIDCTMLTPEPVLKTSGHVDKFADFMVKDVKNGECFRADHLLKAHLQKLMSDKKCSVEKKSEMESVLAQLDNYGQQELADLFVNYNVKSPITGNDLSPPVSFNLMFKTFIGPGGNMPGYLRPETAQGIFLNFKRLLEFNQGKLPFAAAQIGNSFRNEISPRSGLIRVREFTMAEIEHFVDPSEKDHPKFQNVADLHLYLYSAKAQVSGQSARKMRLGDAVEQGVINNTVLGYFIGRIYLYLTKVGISPDKLRFRQHMENEMAHYACDCWDAESKTSYGWIEIVGCADRSCYDLSCHARATKVPLVAEKPLKEPKTVNVVQFEPSKGAIGKAYKKDAKLVMEYLAICDECYITEMEMLLNEKGEFTIETEGKTFQLTKDMINVKRFQKTLYVEEVVPNVIEPSFGLGRIMYTVFEHTFHVREGDEQRTFFSFPAVVAPFKCSVLPLSQNQEFMPFVKELSEALTRHGVSHKVDDSSGSIGRRYARTDEIGVAFGVTIDFDTVNKTPHTATLRDRDSMRQIRAEISELPSIVQDLANGNITWADVEARYPLFEGQETGKKETIEE
Regarding B1, in test [1], the binding entry was “binds”.

B2: Squalene synthase (FDFT1) (enzyme, UniProt P37268 1-417)
chain: MEFVKCLGHPEEFYNLVRFRIGGKRKVMPKMDQDSLSSSLKTCYKYLNQTSRSFAAVIQALDGEMRNAVCIFYLVLRALDTLEDDMTISVEKKVPLLHNFHSFLYQPDWRFMESKEKDRQVLEDFPTISLEFRNLAEKYQTVIADICRRMGIGMAEFLDKHVTSEQEWDKYCHYVAGLVGIGLSRLFSASEFEDPLVGEDTERANSMGLFLQKTNIIRDYLEDQQGGREFWPQEVWSRYVKKLGDFAKPENIDLAVQCLNELITNALHHIPDVITYLSRLRNQSVFNFCAIPQVMAIATLAACYNNQQVFKGAVKIRKGQAVTLMMDATNMPAVKAIIYQYMEEIYHRIPDSDPSSSKTRQIISTIRTQNLPNCQLISRSHYSPIYLSFVMLLAALSWQYLTTLSQVTEDYVQTGEH
Take B2: the binding entry in test [1] is reported as “binds”.

B3: EFEMP1 (printed as a Fibulin) (protein, UniProt Q12805 18-493)
chain: QDTEETITYTQCTDGYEWDPVRQQCKDIDECDIVPDACKGGMKCVNHYGGYLCLPKTAQIIVNNEQPQQETQPAEGTSGATTGVVAASSMATSGVLPGGGFVASAAAVAGPEMQTGRNNFVIRRNPADPQRIPSNPSHRIQCAAGYEQSEHNVCQDIDECTAGTHNCRADQVCINLRGSFACQCPPGYQKRGEQCVDIDECTIPPYCHQRCVNTPGSFYCQCSPGFQLAANNYTCVDINECDASNQCAQQCYNILGSFICQCNQGYELSSDRLNCEDIDECRTSSYLCQYQCVNEPGKFSCMCPQGYQVVRSRTCQDINECETTNECREDEMCWNYHGGFRCYPRNPCQDPYILTPENRCVCPVSNAMCRELPQSIVYKYMSIRSDRSVPSDIFQIQATTIYANTINTFRIKSGNENGEFYLRQTSPVSAMLVLVKSLSGPREHIVDLEMLTVSSIGTFRTSSVLRLTIIVGPFSF
With B3, the binding entry in test [1] is on record as “binds”.

B4: Lman1 (protein, UniProt P49257 31-510)
chain: DGVGGDPAVALPHRRFEYKYSFKGPHLVQSDGTVPFWAHAGNAIPSSDQIRVAPSLKSQRGSVWTKTKAAFENWEVEVTFRVTGRGRIGADGLAIWYAENQGLEGPVFGSADLWNGVGIFFDSFDNDGKKNNPAIVIIGNNGQIHYDHQNDGASQALASCQRDFRNKPYPVRAKITYYQNTLTVMINNGFTPDKNDYEFCAKVENMIIPAQGHFGISAATGGLADDHDVLSFLTFQLTEPGKEPPTPDKEISEKEKEKYQEEFEHFQQELDKKKEEFQKGHPDLQGQPAEEIFESVGDRELRQVFEGQNRIHLEIKQLNRQLDMILDEQRRYVSSLTEEISKRGAGMPGQHGQITQQELDTVVKTQHEILRQVNEMKNSMSETVRLVSGMQHPGSAGGVYETTQHFIDIKEHLHIVKRDIDNLVQRNMPSNEKPKCPELPPFPSCLSTVHFIIFVVVQTVLFIGYIMYRSQQEAAAKKFF
On to B4, for which the binding entry in test [1] and in test [2] was “binds” throughout.
